Results taken from patent US10730857B2, “Benzocyanine compounds” (Pierce Biotechnology, Inc., priority 2011, dated 2020).
Some of these results come from one statement about several compounds together.

System: lamin A in U20S cells
Test: Immunofluorescence, mouse anti-lamin A, U20S cells (FIG. 16)
Assay type: cell-based
Conditions: depending on the molar excess
Description: The inventive compounds and commercial dye were evaluated for immunofluorescence in a second cell based assay using the following protocol. Frozen U20S cell plates stored at −20° C. were placed overnight at 4° C. Storage buffer (PBS) was removed and the cells were permeabilized for 15 min (100 μl/well) with 0.1% Triton-X100 in 1×PBS buffer. Plates were blocked for 30 min in 2% BSA in 1×PBS-0.1% Trion-X100. Primary antibodies diluted in 2% BSA in 1×PBS-0.1% Trion-X100 were added to the plates (column 1-11; column 12 included only blocker) and incubated five hours at room temperature. Mouse anti-lamin A was added at 2 μg/ml and rabbit anti-lamin B1 was added at 4 μg/ml. After incubation, the antibody solution was removed from the plates and the plates were washed PBS-0.5% Tween-20 (2×100 μl/well). Next, GAM and GAR secondary antibodies labeled with DyLight 680-NHS, DyLight 680B-NHS, 679 Compound 1-NHS, and Cy5.5 Mono Ester were diluted to 4 μg/ml in PBS and incubated with the cells for one hour at room temperature. […] The plates were scanned on ArrayScan Plate Reader for imaging and quantitation.

SMILES: COCC[N+]1=C(/C=C/C=C/C=C2/N(CCCCCC(=O)O)c3ccc4c(S(=O)(=O)[O-])cc(S(=O)(=O)[O-])cc4c3C2(C)C)C(C)(CCCS(=O)(=O)[O-])c2c1ccc1c(S(=O)(=O)[O-])cc(S(=O)(=O)[O-])cc21.[Na+].[Na+].[Na+].[Na+] (stereo not shown) [679 Compound 1, 6-((E)-2-((2E,4E)-5-(3-(2-methoxyethyl)-1-methyl-6,8-disulfonato-1-(3-sulfonatopropyl)-1H-benzo[e]indol-3-ium-2-yl)penta-2,4-dien-1-ylidene)-1,1-dimethyl-6,8-disulfonato-1H-benzo[e]indol-3(2H)-yl)hexanoate]
- Fluorescence signal intensity higher compared to DyLight 680 or Cy5.5 GAM conjugates: 2-4 times
